Experimental data taken from patent publication US5494932A, “Sulfonic stilbene derivatives in the treatment of viral disease” (Merrell Dow Pharmaceuticals Inc., priority 1991, dated 1996).
At least one compound was matched to its structure with a doubt left.

How the values were obtained:
[1] = test system: HIV-1 strain GB8 in JM cells; experiment: Acute HIV-1 (GB8) infection of JM cells: syncytial counts and p24 antigen; assay type: cell-based, HIV-1 (human T cell line JM)
Description: (§1) When evaluated in the human T cell line JM acutely infected with the GB8 virus, DIDS, H2 DIDS and SITS (Table I) suppressed virus-induced multinucleated giant cell formation (syncytia). […] We also examined the antiviral properties of these compounds in a second host-cell/virus system, i.e., the highly CD4+ C8166 cells infected with the Haitian strain of HIV-1, RF.
(§2) The cell lines used were the semi-mature human lymphoblastoid leukemia T cell line JM, the human T-lymphoblastoid C8166 cell line, the human cutaneous T cell lymphoma line H9 and, the human T cell transformed line MT-4. Stocks of HIV-1 strains RF and GB8 (kindly provided by Dr. Graham Farrar, Center for Applied Microbiological Research, Porton Dawn, England) were prepared from chronically infected H9 cells and acutely infected JM cells, respectively. Virus stocks consisted of cell-free growth medium (RPMI 1640 plus 10% fetal calf serum) containing freshly shed virus. Virus titres were determined by a standard plaque reduction assay.
Virus stocks (strains RF or GB8) were diluted into growth medium containing various concentrations of DIDS, H2 DIDS or SITS. The required number of cells were then immediately added and the virus allowed to absorb for 2 hours at 37° C. to give a multiplicity of infection (MOI) of 0.001 infectious units/cell. The virus-infected cells were pelleted, washed three times in phosphate buffered saline (PBS), and resuspended in fresh growth medium containing the appropriate concentrations of stilbene disulfonic acids. Cells were then distributed into 24-well culture plates (Falcon) and assayed as described below for virus infection. Alternatively, cells were first infected with HIV-1 (strains RF or GB8) for 2 hours at 37° C. at the above MOI. After extensive washing, cells were replated into fresh growth medium containing various concentrations of stilbene disulfonic acids. In the above experiments, syncytia were scored between 2 and 4 days postinfection (p.i.) in triplicate using an Olympus CK2 inverted microscope. The culture fluids were recovered between 3 and 5 days p.i., clarified by low speed centrifugation (2,000 rpm) for 5 minutes and the level of HIV-1 p24 core antigen in the supernatants was determined by p24 antigen ELISA (Coulter). The concentrations of stilbene disulfonic acids giving 50% inhibition of HIV-1 growth (IC50) were determined from the dose-response curves by linear regression analysis.
Protocol: JM cells were infected with HIV-1 to give a multiplicity of infection of 0.001. Virus adsorption was for 2 hours at room temperature. The cells were washed and distributed into wells containing different concentrations of test compounds and incubated. After 2 days the cells were observed and syncytia were counted. […]

[2] = test system: HIV-1 strain RF in C8166 cells; experiment: Acute HIV-1 (RF) infection of C8166 cells: syncytial and p24 antigen assays; assay type: cell-based, HIV-1 (human C8166 cells); settings: C8166 cells infected with RF
Description: as §1
as §2, with “Virus stocks consisted of cell-free growth medium (RPMI 1640 plus 10% fetal calf serum) containing freshly shed virus.” left out
Virus stocks (strains RF or GB8) were diluted into growth medium containing various concentrations of DIDS, H2 DIDS or SITS. […] In the above experiments, syncytia were scored between 2 and 4 days postinfection (p.i.) in triplicate using an Olympus CK2 inverted microscope. The culture fluids were recovered between 3 and 5 days p.i., clarified by low speed centrifugation (2,000 rpm) for 5 minutes and the level of HIV-1 p24 core antigen in the supernatants was determined by p24 antigen ELISA (Coulter). […]

[3] = test system: HIV-1 strain RF in MT-4 cells; experiment: Growth of HIV-1 RF in MT-4 cells; assay type: cell-based, HIV-1 (human MT-4 cells)
Description: as §1, §2

[4] = test system: HIV-1 strain GB8 in JM cells; experiment: Established HIV-1 (GB8) infection of JM cells, post-infection addition: syncytia and p24 antigen; assay type: cell-based, HIV-1 (human T cell line JM)
Method: The stilbene disulfonic acids blocked HIV-1 replication when the compounds were added within 2 hours of virus adsorption, i.e., prior to virus penetration, and the cells were cultured in the presence of the inhibitors. These compounds were next examined for antiviral activity at later stages of the infection process. At a MOI of 0.01 infectious units/cell (GB8 virus), viral glycoproteins appear at the surface of JM cells by 24 hours post-infection (p.i.) and initiate fusion with neighboring CD4^+ cells; the syncytial numbers show a good correlation with the production of cell-free virus (Tyms et al., 1990).
In post-treatent experiments, cells were first infected with HIV-1 strain RF or GB8 for 2 hours at 37° C. at a MOI of 0.01 and allowed to grow for either 24 or 43 hours before replating into fresh growth medium containing 100 μg/ml of DIDS, H2 DIDS or SITS. Syncytia were then scored at 52 and 68 hours p.i. in triplicate, and p24 viral core antigen in culture fluids were assayed at 75 hours p.i. as described above.
Protocol: JM cells were infected with HIV at a multiplicity of infection of 0.00025 syncytial forming units per cell. Virus adsorption was at room temperature for one hour. The cells were then washed three times and distributed in wells of a tissue culture plate at a concentration of 2×10^5 cells/well. Either DIDS, SITS or H2 DIDS (all at 100 μg/ml) were added to wells at 0, 24, 43 and 51 hours post-infection. As virus controls some wells had no drug added. Syncytia were scored at 43, 52 and 68 hours post-infection. The cell-free supernatant fluids of the virus control wells were harvested after 33, 43, 51, 68 and 75 hours post-infection. All other wells were harvested 75 hours post-infection. The supernatant fluid was then assayed for p24 viral core antigen.

[5] = test system: virus-induced cell fusion (gp120-CD4 dependent); experiment: Anti-syncytial cocultivation assay: H9 cells chronically infected with HIV-1 RF mixed with uninfected C8166 cells; assay type: cell-based, HIV-1 RF; human H9 and C8166 cells
Description: Syncytial cell formation depends on the interaction of gp120, expressed in the membranes of infected cells, with the CD4 antigen on neighboring cells (Camerini and Seed, 1990). We utilized a cell cocultivation model to examine the effect of the stilbene disulfonic acids on the gp120-CD4 dependent fusion process. This system consists of mixing H9 cells chronically infected with HIV-1 RF (gp120^+ cells) with uninfected C8166 cells (CD4^+ cells) as the fusion indicator. In this assay, cell fusion occurred within 2 to 3 hours of mixing at 37° C. and substantial syncytia were observed after a further 3 to 4 hours (FIG. 1, Panel A). […] These findings with the sulfated polysaccharides were consistent with a previous report (Montefiori et al., 1990).
The effect of the stilbene disulfonic acids and various sulfated polysaccharides on virus-induced cell fusion. […]
CD4^+ uninfected C8166 cells were seeded into 24-well trays ([…]) that contained growth medium and various concentrations of test compounds. […] Syncytia were recorded on photographic film.
Protocol: H9 cells chronically infected with RF strain of HIV-1 and uninfected C8166 cells were mixed in the presence of either DIDS, SITS, H2 DIDS, dextran sulfate, or heparin (100 μg/ml). The cells were observed after 2, 31/2 and 51/2 hours and the amount of cell fusion quantified. […]

HIV-1 = experiment: Back titration of cell-free supernatants (infectivity) on fresh uninfected JM cells; assay type: cell-based, HIV-1 (human T cell line JM); settings: data not shown
Method: Protocol: JM cells were infected with HIV-1 to give a multiplicity of infection of 0.001. Virus adsorption was for 2 hours at room temperature. The cells were washed and distributed into wells containing different concentrations of test compounds and incubated. After 2 days the cells were observed and syncytia were counted. The cell-free supernatant fluids were harvested at 4 and 6 days post infection and assayed for levels of p24 viral core antigen and after 6 days the supernatants were also titrated to determine levels of infectivity.
*Syncytia-forming unit; cellfree supernatants from virus infected cells
having received the indicated concentration of compounds were incubated
with fresh uninfected JM cells and syncytia were scored to determine the
number of infectious units/ml.
supernatants from virusinfected control cells not having received drug

[6] = JM cells acutely infected with GB8

In the case of `O=S(=O)(O)c1cc(N=C=S)ccc1CCc1ccc(N=C=S)cc1S(=O)(=O)O` [H2 DIDS, 4,4'-diisothiocyanatodihydrostilbene-2,2'-disulfonic acid], the “p24 4 days p.i.” value ([1]; 100 μg/ml) was “None detected”, the “inhibition of p24 viral core antigen” value [1, 6] was “dose-dependent inhibition” and the “virus-induced multinucleated giant cell formation (syncytia)” value [1, 6] was “suppressed”. For the same molecule, the “order of antiviral potency” value ([1]; in all three host cell/virus systems (JM/GB8, C8166/RF, MT-4/RF)) was “DIDS>H2 DIDS>>SITS”, the HIV-1 infection [2] was “blocked HIV-1 infection” and the “growth of RF in MT-4 cells / antiviral activity” value [3] was “blocked the growth of RF”. For the same molecule, the “syncytia by 68 hours p.i.” value ([4]; 100 μg/ml, added 43 hours p.i.) was “significantly regressed”, the “fusion relative to virus control” value ([4]; 100 μg/ml, addition 24 hours p.i., scored at 52 and 68 hours p.i.) was “completely suppressed fusion” and the “P24 Antigen (75 hours post-infection)” value ([4]; 100 μg/ml, time of addition 0 hours) was “Neg”. The “relative order of antiviral potency” value ([4]; established HIV-1 infections) was “DIDS>H2 DIDS>>SITS”, the “cell fusion / syncytia” value ([5]; 100 μg/ml, at the time of cell mixing) was “only partially prevented syncytia” and the “blocking virus-induced cell fusion and death” value ([5]; summary statement) was “siginificant antiviral activity”. The “viral infectivity in the cell-free supernatants” value (HIV-1) was “absence of viral infectivity”.
